{"source": "PubChem BioAssay AID602196 | INSERM | 2012", "test": "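Modifiers of cisplatin sensitivity in A549 cells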", "cells": "human A549 lung cancer cells", "reagent": "siRNA pair against human genes", "time to read-out": "48 h transfection before cisplatin; time from cisplatin to read-out not stated", "conditions": "cisplatin at a dose killing half of control-siRNA cells; exact dose and duration not given", "measured": "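Cisplatin cell death as a shift from the 50% death seen with control siRNA; siRNAs toxic or growth-blocking alone scored 0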", "reading the numbers": "two-siRNA summed score (-2 to +2): higher = both siRNAs protect from cisplatin killing; -2 means both sensitise", "call rule": "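Each siRNA scores 0 if harmful alone by LDH or WST-1, otherwise +1 if it reduces and -1 if it increases cisplatin killing; a gene is active when both siRNAs agree (sum +2 or -2)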", "calls": "active = both siRNAs shift cisplatin killing the same way; inactive = no consistent shift, or siRNA harmful alone", "note": "The whole screen tested about 23,000 reagents; below is an unselected part. 455 of all reagents (2%) were called active. 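Active includes both protection and sensitisation; some change values fall well beyond the stated -50 to +50 range.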 Not all columns of the deposit are shown. The record does not give: the amount of reagent."}
{"gene":"EML1","PubChem SID":"SID131512684","two-siRNA summed score (-2 to +2)":0,"Outcome":"inactive"}
{"gene":"ATP6V0E2-AS1","PubChem SID":"SID131522469","two-siRNA summed score (-2 to +2)":1,"Outcome":"inactive"}
{"gene":"LOC340900","PubChem SID":"SID131510143","two-siRNA summed score (-2 to +2)":0,"Outcome":"inactive"}
{"gene":"CIC","PubChem SID":"SID131513560","two-siRNA summed score (-2 to +2)":0,"Outcome":"inactive"}
{"gene":"HGS","PubChem SID":"SID131500980","two-siRNA summed score (-2 to +2)":-1,"Outcome":"inactive"}
{"gene":"RPL35A","PubChem SID":"SID131517171","two-siRNA summed score (-2 to +2)":0,"Outcome":"inactive"}
{"gene":"LTBP1","PubChem SID":"SID131514832","two-siRNA summed score (-2 to +2)":0,"Outcome":"inactive"}
{"gene":"MYO3A","PubChem SID":"SID131510319","two-siRNA summed score (-2 to +2)":0,"Outcome":"inactive"}
{"gene":"RBMXL3","PubChem SID":"SID131505779","two-siRNA summed score (-2 to +2)":0,"Outcome":"inactive"}
{"gene":"STX18","PubChem SID":"SID131501401","two-siRNA summed score (-2 to +2)":-1,"Outcome":"inactive"}
{"gene":"AFP","PubChem SID":"SID131506444","two-siRNA summed score (-2 to +2)":0,"Outcome":"inactive"}
{"gene":"TCEAL9","PubChem SID":"SID131514400","two-siRNA summed score (-2 to +2)":0,"Outcome":"inactive"}
{"gene":"GJB5","PubChem SID":"SID131505496","two-siRNA summed score (-2 to +2)":0,"Outcome":"inactive"}
{"gene":"ZMYND15","PubChem SID":"SID131504052","two-siRNA summed score (-2 to +2)":0,"Outcome":"inactive"}
{"gene":"OR4A15","PubChem SID":"SID131503485","two-siRNA summed score (-2 to +2)":0,"Outcome":"inactive"}
{"gene":"NUAK2","PubChem SID":"SID131523117","two-siRNA summed score (-2 to +2)":2,"Outcome":"active"}
{"gene":"FUT9","PubChem SID":"SID131520609","two-siRNA summed score (-2 to +2)":1,"Outcome":"inactive"}
{"gene":"LOC441424","PubChem SID":"SID131513666","two-siRNA summed score (-2 to +2)":0,"Outcome":"inactive"}
{"gene":"PIP4P1","PubChem SID":"SID131512295","two-siRNA summed score (-2 to +2)":0,"Outcome":"inactive"}
{"gene":"SLC26A8","PubChem SID":"SID131516102","two-siRNA summed score (-2 to +2)":0,"Outcome":"inactive"}
{"gene":"PRR20A","PubChem SID":"SID131513415","two-siRNA summed score (-2 to +2)":0,"Outcome":"inactive"}
{"gene":"ACSM2B","PubChem SID":"SID131519441","two-siRNA summed score (-2 to +2)":1,"Outcome":"inactive"}
{"gene":"LOC388419","PubChem SID":"SID131507586","two-siRNA summed score (-2 to +2)":0,"Outcome":"inactive"}

Active calls, among the entries above:
{"gene":"NUAK2","PubChem SID":"SID131523117","two-siRNA summed score (-2 to +2)":2,"Outcome":"active"}

Continued.
{"gene":"GLI3","PubChem SID":"SID131505381","two-siRNA summed score (-2 to +2)":0,"Outcome":"inactive"}
{"gene":"OTX1","PubChem SID":"SID131519771","two-siRNA summed score (-2 to +2)":1,"Outcome":"inactive"}
{"gene":"FOXN4","PubChem SID":"SID131517184","two-siRNA summed score (-2 to +2)":0,"Outcome":"inactive"}
{"gene":"LOC387717","PubChem SID":"SID131519252","two-siRNA summed score (-2 to +2)":1,"Outcome":"inactive"}
{"gene":"MND1","PubChem SID":"SID131520644","two-siRNA summed score (-2 to +2)":1,"Outcome":"inactive"}
{"gene":"PLA2G4C","PubChem SID":"SID131511925","two-siRNA summed score (-2 to +2)":0,"Outcome":"inactive"}
{"gene":"TXNDC12","PubChem SID":"SID131509405","two-siRNA summed score (-2 to +2)":0,"Outcome":"inactive"}
{"gene":"ICAM1","PubChem SID":"SID131505181","two-siRNA summed score (-2 to +2)":0,"Outcome":"inactive"}
{"gene":"DENND6B","PubChem SID":"SID131516441","two-siRNA summed score (-2 to +2)":0,"Outcome":"inactive"}
{"gene":"N4BP3","PubChem SID":"SID131510001","two-siRNA summed score (-2 to +2)":0,"Outcome":"inactive"}
{"gene":"UQCC4","PubChem SID":"SID131522864","two-siRNA summed score (-2 to +2)":1,"Outcome":"inactive"}
{"gene":"LMNA","PubChem SID":"SID131503136","two-siRNA summed score (-2 to +2)":0,"Outcome":"inactive"}
{"gene":"KLF2","PubChem SID":"SID131521917","two-siRNA summed score (-2 to +2)":1,"Outcome":"inactive"}
{"gene":"RPLP2","PubChem SID":"SID131518316","two-siRNA summed score (-2 to +2)":0,"Outcome":"inactive"}
{"gene":"UBQLN3","PubChem SID":"SID131512699","two-siRNA summed score (-2 to +2)":0,"Outcome":"inactive"}
{"gene":"DNAH9","PubChem SID":"SID131503587","two-siRNA summed score (-2 to +2)":0,"Outcome":"inactive"}
{"gene":"OR13C4","PubChem SID":"SID131520867","two-siRNA summed score (-2 to +2)":1,"Outcome":"inactive"}
